This is an account of results in doi:10.1101/2023.07.27.550750.

Like-named read-outs stand apart in the source and are kept apart here. Results are given in words; binding and its absence hold for the method and conditions named. Binding seen in cells or lysates may run through a third protein. Here binding means that the protein was enriched with, or labelled near, the bait; the list need not be complete. Where a sequence is shown, tags or fusion partners need not be part of it.

Test in all cases: affinity purification with mass spectrometry
In assay [1] the target is T1, Tmem81-3xFLAG-sfGFP (zebrafish) (UniProt B8JI67).
T1 sequence: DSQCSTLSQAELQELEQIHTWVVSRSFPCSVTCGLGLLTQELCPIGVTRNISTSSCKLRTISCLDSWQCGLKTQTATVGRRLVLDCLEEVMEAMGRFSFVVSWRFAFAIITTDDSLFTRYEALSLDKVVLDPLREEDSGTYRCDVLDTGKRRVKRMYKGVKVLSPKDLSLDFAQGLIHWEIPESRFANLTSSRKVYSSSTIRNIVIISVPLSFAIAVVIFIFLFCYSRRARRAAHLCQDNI

The target in assay [2] is T2, Izumo1-3xFLAG-sfGFP (zebrafish).
T2 sequence: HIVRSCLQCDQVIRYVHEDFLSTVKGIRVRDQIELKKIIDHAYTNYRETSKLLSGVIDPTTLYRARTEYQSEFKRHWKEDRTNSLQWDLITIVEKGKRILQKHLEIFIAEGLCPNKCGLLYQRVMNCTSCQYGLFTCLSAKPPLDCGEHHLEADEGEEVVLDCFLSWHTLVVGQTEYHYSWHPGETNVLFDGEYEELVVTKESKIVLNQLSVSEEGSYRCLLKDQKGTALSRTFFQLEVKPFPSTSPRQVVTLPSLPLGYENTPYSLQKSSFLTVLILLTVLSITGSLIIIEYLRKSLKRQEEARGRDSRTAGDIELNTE

The target of assay [3] is T1, Tmem81-3xFLAG-sfGFP (zebrafish). This is another data set of the same source.
The target of assay [4] is T2, Izumo1-3xFLAG-sfGFP (zebrafish). This is another data set of the same source.

B1: Spaca6 (protein, UniProt A0A8M9PDM1 19-317)
chain: FTCYQCFIDENDSRRLCLGHILTEYNVRNVDSCYKTLDRIFNNEEKVIEAGKVGRGYDLTLKNILMAEIMPIVEEFDQQLNYDTEYESRLQAAANNFIAAASSLPRVSGCLPPCGFQVQGAVYNCVTCQYDSCEFPLDCPGKEITVQENNRTQMWCSVPFLLPADVEIVWRYAQDRTMLRERFDDVTVGVDPLYSIPSARPEQSGTYQCEVLSQEQSLVRLYFYLTVVPVAQTYHVHLQDLCAQALRPEPQFPPSFSFWLPRPALLITCLTATMLLIFLSLGAMCRLWYQIRTNVSNPA
B1: the binding result in assay [1], in assay [2], in assay [3] and in assay [4] was “binds” in each case.

B2: Tmem81 (protein, UniProt B8JI67 19-259)
chain: T1 sequence
As to B2, the binding entry in assay [2] and in assay [4] was “binds” throughout.

B3: Izumo1 (protein, UniProt A0A2R8QHQ6 17-336)
chain: T2 sequence
For B3, the binding result in assay [1] and in assay [3] was “binds” in each case.
